From article PMC3585277, “The C-Terminal Region Mesd Peptide Mimics Full-Length Mesd and Acts as an Inhibitor of Wnt/β-Catenin Signaling in Cancer Cells” (PLoS ONE, 2013) come the findings set out here.

The chains behind the UniProt entries cited, without tags or fusion partners. Residues count along the entry.
UniProt O75581, residues 20-1613: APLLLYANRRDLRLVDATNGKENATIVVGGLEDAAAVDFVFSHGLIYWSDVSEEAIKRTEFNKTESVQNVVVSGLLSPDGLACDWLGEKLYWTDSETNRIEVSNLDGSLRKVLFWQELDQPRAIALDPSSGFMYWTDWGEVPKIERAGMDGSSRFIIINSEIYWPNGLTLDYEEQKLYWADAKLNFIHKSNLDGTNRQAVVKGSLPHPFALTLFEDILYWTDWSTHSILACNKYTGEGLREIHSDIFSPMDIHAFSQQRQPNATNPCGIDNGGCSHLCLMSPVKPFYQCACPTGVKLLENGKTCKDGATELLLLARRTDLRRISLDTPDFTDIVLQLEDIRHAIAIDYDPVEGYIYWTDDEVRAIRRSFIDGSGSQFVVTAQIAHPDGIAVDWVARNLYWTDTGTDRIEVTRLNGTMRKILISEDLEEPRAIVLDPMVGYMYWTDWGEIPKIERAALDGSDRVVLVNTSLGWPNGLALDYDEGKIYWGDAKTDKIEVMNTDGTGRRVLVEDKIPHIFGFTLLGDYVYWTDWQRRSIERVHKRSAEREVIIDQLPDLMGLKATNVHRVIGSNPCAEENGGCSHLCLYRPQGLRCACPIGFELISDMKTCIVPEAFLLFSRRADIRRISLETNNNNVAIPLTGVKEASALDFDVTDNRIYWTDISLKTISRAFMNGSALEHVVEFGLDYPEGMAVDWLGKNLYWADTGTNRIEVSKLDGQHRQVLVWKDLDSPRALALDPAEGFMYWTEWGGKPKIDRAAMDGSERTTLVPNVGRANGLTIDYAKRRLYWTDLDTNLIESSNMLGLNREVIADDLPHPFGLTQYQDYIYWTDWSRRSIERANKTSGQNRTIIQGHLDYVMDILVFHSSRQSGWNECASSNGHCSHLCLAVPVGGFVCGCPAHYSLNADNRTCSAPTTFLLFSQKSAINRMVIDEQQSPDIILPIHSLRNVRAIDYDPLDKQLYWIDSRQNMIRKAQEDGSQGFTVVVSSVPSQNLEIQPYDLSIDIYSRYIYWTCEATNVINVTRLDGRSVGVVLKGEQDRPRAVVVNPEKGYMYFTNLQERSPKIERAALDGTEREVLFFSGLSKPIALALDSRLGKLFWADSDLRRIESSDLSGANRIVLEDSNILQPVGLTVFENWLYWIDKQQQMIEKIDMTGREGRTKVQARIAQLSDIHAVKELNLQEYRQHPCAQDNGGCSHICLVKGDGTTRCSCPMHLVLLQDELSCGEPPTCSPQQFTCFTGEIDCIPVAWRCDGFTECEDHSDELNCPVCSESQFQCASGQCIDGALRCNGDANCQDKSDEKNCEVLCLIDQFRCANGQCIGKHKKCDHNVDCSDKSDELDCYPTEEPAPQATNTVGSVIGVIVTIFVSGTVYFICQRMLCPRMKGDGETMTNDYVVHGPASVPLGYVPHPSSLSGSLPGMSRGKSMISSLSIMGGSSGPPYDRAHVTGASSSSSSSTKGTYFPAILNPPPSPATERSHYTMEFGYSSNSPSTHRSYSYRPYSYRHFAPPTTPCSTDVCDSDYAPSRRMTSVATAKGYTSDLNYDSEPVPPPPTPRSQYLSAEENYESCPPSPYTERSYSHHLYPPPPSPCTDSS
UniProt O75197, residues 32-1615: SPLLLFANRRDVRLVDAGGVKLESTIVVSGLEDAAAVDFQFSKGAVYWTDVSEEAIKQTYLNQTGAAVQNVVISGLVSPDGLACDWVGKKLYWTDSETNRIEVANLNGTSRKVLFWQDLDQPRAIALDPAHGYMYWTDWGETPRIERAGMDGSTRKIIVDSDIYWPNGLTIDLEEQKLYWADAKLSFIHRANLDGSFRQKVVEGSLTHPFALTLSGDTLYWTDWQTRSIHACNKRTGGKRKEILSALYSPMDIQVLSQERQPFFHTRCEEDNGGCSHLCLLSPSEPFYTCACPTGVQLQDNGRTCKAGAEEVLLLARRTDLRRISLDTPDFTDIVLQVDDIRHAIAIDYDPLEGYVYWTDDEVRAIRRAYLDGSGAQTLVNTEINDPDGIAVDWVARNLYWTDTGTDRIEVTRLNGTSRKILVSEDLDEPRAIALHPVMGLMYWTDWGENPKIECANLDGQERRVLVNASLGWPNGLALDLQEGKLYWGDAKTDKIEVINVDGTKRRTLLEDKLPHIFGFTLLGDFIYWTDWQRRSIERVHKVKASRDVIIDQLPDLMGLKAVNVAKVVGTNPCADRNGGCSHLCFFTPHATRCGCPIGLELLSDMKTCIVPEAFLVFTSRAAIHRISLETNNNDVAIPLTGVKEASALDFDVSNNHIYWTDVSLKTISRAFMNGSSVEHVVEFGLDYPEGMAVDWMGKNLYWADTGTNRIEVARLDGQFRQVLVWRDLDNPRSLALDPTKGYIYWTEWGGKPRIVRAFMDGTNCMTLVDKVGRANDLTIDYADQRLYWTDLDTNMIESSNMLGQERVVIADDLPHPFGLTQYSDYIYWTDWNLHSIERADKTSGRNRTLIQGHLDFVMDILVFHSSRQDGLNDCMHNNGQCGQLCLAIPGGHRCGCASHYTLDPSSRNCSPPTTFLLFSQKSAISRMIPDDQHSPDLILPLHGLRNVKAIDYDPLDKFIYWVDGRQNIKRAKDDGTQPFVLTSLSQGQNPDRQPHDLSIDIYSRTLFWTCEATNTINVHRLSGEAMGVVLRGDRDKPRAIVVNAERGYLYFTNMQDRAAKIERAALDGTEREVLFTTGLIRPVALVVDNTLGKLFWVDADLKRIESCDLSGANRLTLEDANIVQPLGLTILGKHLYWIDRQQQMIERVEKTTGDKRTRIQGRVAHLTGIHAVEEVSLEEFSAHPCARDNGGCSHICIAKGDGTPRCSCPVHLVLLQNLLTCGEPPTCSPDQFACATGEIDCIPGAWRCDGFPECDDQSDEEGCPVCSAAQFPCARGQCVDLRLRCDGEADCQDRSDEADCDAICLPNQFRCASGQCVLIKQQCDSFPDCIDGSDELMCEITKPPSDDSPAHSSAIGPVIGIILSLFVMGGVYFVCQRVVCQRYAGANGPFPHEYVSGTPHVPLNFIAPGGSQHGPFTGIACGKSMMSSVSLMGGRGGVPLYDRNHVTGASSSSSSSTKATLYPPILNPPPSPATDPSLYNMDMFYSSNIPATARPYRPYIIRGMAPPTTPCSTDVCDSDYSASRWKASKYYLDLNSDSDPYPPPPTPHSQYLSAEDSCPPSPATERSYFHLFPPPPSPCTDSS

These are yes or no findings as the source states them, for the method shown. Some entries that bind do so weakly or less than the wild type.

Assay [1] concerns the target LRP6 on LRP6-transduced HT1080 cells (human) (UniProt O75581). As to the kind of experiment: radioligand binding; 125I-Mesd (5 nM) on monolayers of LRP6-transduced HT1080 cells or LRP5-transfected ldlA7 cells, 4 h at 4°C, minimal Eagle's medium with 0.6% BSA, in the absence or presence of unlabeled Mesd or Mesd peptides; cells washed, lysed and counted; only the binder purified.

In assay [2] the target is LRP5 on LRP5-transfected ldlA7 (LDLR-deficient CHO) cells (human) (UniProt O75197). The assay is described as above.

With QMYPGKGGGSKEKNKTKPEKAKKKEGDPKPRASKEDNRAGSRREDL (peptide, UniProt Q9ERE7 179-224) [mouse Mesd C-terminal region peptide mMesd (150–195)], the binding result in assay [1] and in assay [2] was “binds” each time.

B1: recombinant mouse Mesd protein (protein, UniProt Q9ERE7 30-224)
chain: ADTPGEATPPPRKKKDIRDYNDADMARLLEQWEKDDDIEEGDLPEHKRPSAPIDFSKLDPGKPESILKMTKKGKTLMMFVTVSGNPTEKETEEITSLWQGSLFNANYDVQRFIVGSDRAIFMLRDGSYAWEIKDFLVSQDRCAEVTLEGQMYPGKGGGSKEKNKTKPEKAKKKEGDPKPRASKEDNRAGSRREDL
modifications: 125I (IODO-GEN method) on the radioligand; unlabeled when used as competitor
Turning to B1, the binding result in assay [1] and in assay [2] was “binds” in each case.
